Consider 37 molecules from PubChem BioAssay AID1487 (National Center for Advancing Translational Sciences (NCATS), 2009).

The experiment in a line: qHTS Assay for Modulators of Lamin A Splicing. The conditions noted are these: HeLa LMNA splicing GFP/RFP minigene ratio, 48 h. In a few lines: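 Read-out is the ratio of GFP to DsRed2 object intensity, acquired by 488 nm laser-scanning cytometry on HeLa lamin A-EGFP minigene reporter cells. Compound incubation 48 hrs at 37 °C in Opti-MEM with 2% FBS; DMSO 0.5% final.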

Setting [1] is: measured here: GFP splicing reporter channel.
The mark [2] stands for this setting: measured here: RFP viability control channel.

The list shows a part of the results. These are further read-outs of the screen, such as a control signal, another cell line or another target. No call is given for them. The list favours compounds with an active or inconclusive main result. Potencies come from curve fits of mixed quality, noted in brackets.

Take `CCOc1cc(C(=O)NCCc2sc(-c3ccc(F)cc3)nc2C)cc(OCC)c1OCC`: the half-maximal activity concentration (AC50) is 3.16 µM [falling, full curve, poor fit] under setting [1] and 0.501 µM [falling, full curve, poor fit] under setting [2].
For `CC(C)=CCOc1c2ccoc2cc2oc(=O)ccc12`, under setting [2], the AC50 is 31.6 µM [rising, single point].
The same measure, in the same setting: with `O=S(=O)(NCCc1csc(-c2ccccc2)n1)c1ccc2c(c1)OCCO2` the figure was 35.5 µM [rising, single point].
As for `COc1ccc(NC(=O)CCCC2CCCCC2)cc1S(=O)(=O)N1CCCCC1`, the half-maximal activity concentration (AC50) under setting [1] is 12.6 µM [rising, partial curve, poor fit] and the half-maximal activity concentration (AC50) under setting [2] is 22.4 µM [rising, partial curve].
With `Cc1ccsc1CN1CCc2nc(Nc3ccccc3)ncc2C1`, the concentration at half-maximal activity (AC50) under setting [1] is 31.6 µM [falling, single point].
`CCOc1ccc(NS(=O)(=O)c2ccc(NC(=O)C3CCCO3)cc2)cc1` (centres undefined): the half-maximal activity concentration (AC50) under setting [2] is 31.6 µM [rising, single point].
Turning to `O=C(COC(=O)c1ccccc1Cc1ccccc1)Nc1ccc(SC(F)F)cc1`, the half-maximal activity concentration (AC50) is 12.6 µM [rising, single point] under setting [1] and 15.8 µM [rising, partial curve] under setting [2].
Take `CCc1nnc(NC(=O)CCC(=O)N2CCN(CCOc3ccc(C)cc3)CC2)s1`: the concentration at half-maximal activity (AC50) under setting [1] is 15.8 µM [rising, partial curve] and the half-maximal activity concentration (AC50) under setting [2] was 20 µM [rising, single point].
Regarding `Cc1ccc(-c2cnc3cc(C)nn3c2)cc1`, the concentration at half-maximal activity (AC50) under setting [2] was 0.501 µM [falling, full curve, poor fit].
The same measure, in the same setting: with `O=C(/C=C/c1ccc(Cl)cc1Cl)c1ccc[nH]1` the figure was 35.5 µM [falling, single point].
Regarding `CC(Sc1nncn1C)C(=O)Nc1ccc(S(N)(=O)=O)cc1` (centres undefined), the half-maximal activity concentration (AC50) under setting [1] was 0.0282 µM [rising, full curve, poor fit].
For `Cc1cc(C(=O)CN2C(=O)C(=O)N(Cc3ccccc3)C2=O)c(C)n1-c1ccccc1F`, under setting [2], the AC50 is 5.62 µM [rising, full curve, poor fit].
As for `S=C(Nc1ccc(N2CCOCC2)cc1)Nc1ccc2snnc2c1`, the AC50 under setting [1] was 0.112 µM [rising, full curve, poor fit].
On to `CC(=O)C1=C(C)N(Cc2ccccc2)C(=O)N[C@H]1c1cccc(F)c1`, for which the AC50 under setting [1] is 0.794 µM [rising, partial curve].
Consider `COc1ccc(COCC(O)CN2CCC(CN3C(=O)c4cccc5cccc(c45)C3=O)CC2)cc1OC` (centres undefined), for which the AC50 was 14.1 µM [rising, partial curve, poor fit] under setting [1] and 35.5 µM [rising, partial curve] under setting [2].
`c1ccc(Sc2ncnc3c2oc2ccccc23)nc1`: under setting [2], the AC50 was 20 µM [rising, single point].
Consider `COc1ccc(CNC(=O)c2cc3c(=O)n(Cc4ccco4)ccc3nc2C)cc1`, for which the AC50 is, setting by setting: under setting [1], 2.82 µM [rising, full curve]; under setting [2], 4.47 µM [rising, partial curve].
For the molecule `CN1CCC(OC(c2ccccc2)c2ccccc2)CC1`, the half-maximal activity concentration (AC50) under setting [1] is 0.001 µM [falling, full curve, poor fit].
For `Brc1ccc2nc(-c3c[nH]c4ccccc34)cn2c1`, the AC50 under setting [1] is 0.00447 µM [falling, full curve, poor fit].
As for `Cc1cc(C)c(NC(=O)CCS(=O)(=O)c2cc3c(cc2Cl)NC(=O)CO3)c(C)c1`, the concentration at half-maximal activity (AC50) under setting [1] was 3.55 µM [rising, partial curve].
On to `O=C(N/N=C\c1cc(Br)ccc1O)c1ccc(S(=O)(=O)N2CCCCC2)cc1`, for which the AC50 under setting [2] was 12.6 µM [rising, partial curve].
For `O=[N+]([O-])c1c(C(Cl)Cl)nn(-c2ccc(Cl)cc2)c1N1CCCCC1`, the AC50 runs as follows: under setting [1], 5.62 µM [falling, single point]; under setting [2], 4.47 µM [falling, single point].
For the molecule `CCCOc1cc(C)c(S(=O)(=O)N2CCOCC2)cc1C`, the AC50 under setting [1] is 25.1 µM [rising, partial curve, poor fit].
As for `Cc1ccc(Cc2c(C)nc3nc(SCC(=O)NC4CCC(C)CC4)nn3c2C)cc1` (centres undefined), the AC50 is, setting by setting: under setting [1], 12.6 µM [falling, partial curve, poor fit]; under setting [2], 22.4 µM [falling, partial curve, poor fit].
`C=CCNC(=S)Nc1ccc2nsnc2c1`: the half-maximal activity concentration (AC50) is, setting by setting: under setting [1], 3.16 µM [rising, partial curve]; under setting [2], 11.2 µM [rising, partial curve].
With `CCOC(=O)c1ccc2c(c1)N(CC(=O)N(C)c1ccccc1)C(=O)c1ccccc1S2`, under setting [2], the half-maximal activity concentration (AC50) is 10 µM [rising, single point].
`S=C1NC2=C(CCC/C2=C\c2ccccc2)C(c2ccccc2)N1` (centres undefined): the half-maximal activity concentration (AC50) under setting [1] is 15.8 µM [rising, single point].
For `O=C(Nc1ccc(Cl)c(Cl)c1)N1CCSC1c1ccco1` (centres undefined), the half-maximal activity concentration (AC50) by setting is: under setting [1], 0.316 µM [rising, full curve, poor fit]; under setting [2], 25.1 µM [rising, single point].
`CCOc1ccccc1OCCOCCOc1ccccc1[N+](=O)[O-]`: the half-maximal activity concentration (AC50) under setting [1] is 11.2 µM [rising, partial curve] and the AC50 under setting [2] was 20 µM [rising, partial curve, poor fit].
On to `CS(=O)(=O)N(CC(O)Cn1c2ccccc2c2ccccc21)c1ccccc1` (centres undefined), for which the AC50 under setting [2] is 8.91 µM [rising, single point].
For `N#C/C(=C\C1CC=CCC1)c1nc2ccccc2[nH]1` (centres undefined), the AC50 under setting [1] was 0.708 µM [falling, single point].
On to `COc1cc(Nc2nc(SCC(=O)c3ccc(Br)cc3)nc3ccccc23)cc(OC)c1`, for which, under setting [2], the AC50 is 5.01 µM [falling, partial curve].
Take `Cc1ccc(C(=O)/C=C/c2ccccc2[N+](=O)[O-])cc1`: the AC50 under setting [1] was 35.5 µM [falling, single point].
As to `Cc1cccc(NC(=S)N/N=C2\CC(C)(C)Oc3ccc(O)cc32)c1`, the concentration at half-maximal activity (AC50) is 12.6 µM [rising, single point] under setting [1] and 12.6 µM [rising, partial curve] under setting [2].
As to `Cc1ccc(NC(=O)C2C(c3ccccc3)C2(Cl)Cl)c(C)c1` (centres undefined), under setting [2], the concentration at half-maximal activity (AC50) was 14.1 µM [rising, single point].
Same read-out and setting: to `CCCCCCn1c(NCC)nc2c1c(=O)n(C)c(=O)n2C` belongs 2.51 µM [rising, full curve]; to `CC(Oc1ccccc1)C(=O)NNS(=O)(=O)c1ccc([N+](=O)[O-])cc1` (centres undefined), 3.98 µM [falling, full curve, poor fit].
